In paper doi:10.1101/274530:
No constants are given. Whether binding was seen depends on the method and setting. Binding seen in cells or lysates may run through a third protein. Some results given as binding are weak or reduced against the parent protein; the word gives no strength.

Amino acid sequences for entries named in this document (tags omitted). A change or cut given only in a name is not applied to a line headed by its entry.
UniProt Q8NHH9, whole entry: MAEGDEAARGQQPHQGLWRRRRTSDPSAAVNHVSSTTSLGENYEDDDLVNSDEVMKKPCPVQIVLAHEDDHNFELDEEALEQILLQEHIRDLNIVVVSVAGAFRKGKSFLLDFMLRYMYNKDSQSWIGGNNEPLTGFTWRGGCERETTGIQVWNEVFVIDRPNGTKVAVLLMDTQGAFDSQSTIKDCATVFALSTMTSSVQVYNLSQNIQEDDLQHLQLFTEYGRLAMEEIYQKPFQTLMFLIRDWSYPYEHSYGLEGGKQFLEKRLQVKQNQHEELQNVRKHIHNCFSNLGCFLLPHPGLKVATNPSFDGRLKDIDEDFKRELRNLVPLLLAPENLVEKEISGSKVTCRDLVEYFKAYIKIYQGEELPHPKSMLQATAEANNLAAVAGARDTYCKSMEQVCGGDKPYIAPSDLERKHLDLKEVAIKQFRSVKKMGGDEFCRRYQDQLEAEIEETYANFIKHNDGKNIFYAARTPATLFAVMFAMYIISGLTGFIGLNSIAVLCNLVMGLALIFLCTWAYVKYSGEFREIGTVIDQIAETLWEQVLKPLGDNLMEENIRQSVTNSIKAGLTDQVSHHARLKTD

Key:
[1] = molecular target: HA-tagged ATL2 Arg244Gln (R244Q), dimerization-defective mutant, stably expressed in HCT116 cells (human) (UniProt Q8NHH9); assay: co-IP
[2] = molecular target: HA-tagged ATL2 (Atlastin 2), wild type, stably expressed in HCT116 cells (human) (UniProt Q8NHH9); assay: co-IP

B1: ATL3 (Atlastin 3) in HCT116 cells (protein, UniProt Q6DD88 1-541)
chain: MLSPQRVAAAASRGADDAMESSKPGPVQVVLVQKDQHSFELDEKALASILLQDHIRDLDVVVVSVAGAFRKGKSFILDFMLRYLYSQKESGHSNWLGDPEEPLTGFSWRGGSDPETTGIQIWSEVFTVEKPGGKKVAVVLMDTQGAFDSQSTVKDCATIFALSTMTSSVQIYNLSQNIQEDDLQQLQLFTEYGRLAMDEIFQKPFQTLMFLVRDWSFPYEYSYGLQGGMAFLDKRLQVKEHQHEEIQNVRNHIHSCFSDVTCFLLPHPGLQVATSPDFDGKLKDIAGEFKEQLQALIPYVLNPSKLMEKEINGSKVTCRGLLEYFKAYIKIYQGEDLPHPKSMLQATAEANNLAAAASAKDIYYNNMEEVCGGEKPYLSPDILEEKHCEFKQLALDHFKKTKKMGGKDFSFRYQQELEEEIKELYENFCKHNGSKNVFSTFRTPAVLFTGIVALYIASGLTGFIGLEVVAQLFNCMVGLLLIALLTWGYIRYSGQYRELGGAIDFGAAYVLEQASSHIGNSTQATVRDAVVGRPSMDKKAQ
In the case of B1, the binding [1] is reported as “no binding” and the binding [2] is reported as “binds”.
